# PubChem BioAssay AID504847 (National Center for Advancing Translational Sciences (NCATS), 2011)
# Protein sequences, listed by entry. Tags and fused reporters are not part of them. Lines headed by an entry give the natural chain unless they say otherwise; changes in a name come on top.
# UniProt P11473: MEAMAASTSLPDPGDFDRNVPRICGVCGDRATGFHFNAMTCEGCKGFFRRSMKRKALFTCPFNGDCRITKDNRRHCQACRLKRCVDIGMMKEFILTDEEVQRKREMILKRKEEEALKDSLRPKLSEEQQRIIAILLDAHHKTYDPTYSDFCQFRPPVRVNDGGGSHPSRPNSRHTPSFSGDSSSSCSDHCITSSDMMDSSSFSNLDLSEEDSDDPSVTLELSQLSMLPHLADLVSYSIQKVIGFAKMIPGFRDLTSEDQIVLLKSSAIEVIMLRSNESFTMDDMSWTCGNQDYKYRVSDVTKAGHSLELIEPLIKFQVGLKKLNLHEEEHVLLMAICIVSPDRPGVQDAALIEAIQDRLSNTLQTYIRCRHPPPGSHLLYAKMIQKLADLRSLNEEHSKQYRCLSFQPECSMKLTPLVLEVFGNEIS
# Several values for one entry are separate records, joined by “and”; a condition that tells them apart may be missing. Equal entries are not always repeated. About 3,700 (0.93%) of roughly 400,000 compounds were called active. The inconclusive results got no clear call from the source; some entries with a clear call stand among them for comparison. Calls come from the whole dose curve; as a rule, active = well fitted inhibition curve with a large enough effect; inconclusive = small, poorly fitted or top-dose-only effect, or another doubt; inactive = no such curve, though single readings can be large or run the other way. A potency beside an inconclusive call is a rough fit, not a confirmed value.
# Target: Vitamin D3 receptor (Homo sapiens) (UniProt P11473)
# Experiment: Inhibitors of the vitamin D receptor (VDR): qHTS
# Conditions: VDR-SRC2-3 peptide fluorescence polarization, 2 h; max response, negative = inhibition: stronger effect = lower value
# Method in brief: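 Inhibition of the VDR/SRC2-3 peptide interaction is quantified by fluorescence polarization. Compounds (23 nl, pintool) incubate with the reagents for 2 hours at ambient room temperature.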
# % is set by controls: 0 for no effect and ±100 for the full control effect; potency is the fitted concentration of half-maximal effect.
Structure (SMILES),Potency,"max response, negative = inhibition"
CC(=O)/C(=N/Nc1cccc(Cl)c1)N1CCOCC1,"inconclusive: 79.4 µM [inhibitor, single point]",
COc1ccc(Cl)cc1C(=O)CSc1nc(N)cc(N)n1,"inconclusive: 89.1 µM [inhibitor, single point]",
O=C(CSc1nccn1-c1ncc(C(F)(F)F)cc1Cl)c1ccc(Br)cc1,"inconclusive: 56.2 µM [inhibitor, partial curve, poor fit]",
CCCCS(=O)c1snnc1C (stereo not drawn),"inconclusive: 79.4 µM [inhibitor, single point]",
O/C(=C\c1nc2ccccc2nc1/C=C(\O)c1ccccc1)c1ccccc1,active: 79.4 µM,
Nc1ncc(N=Nc2cc(C(=O)O)ccc2Cl)s1,"inconclusive: 89.1 µM [inhibitor, single point]",
CCc1ccc(N2C(=O)C(Cl)=C(N3CCOCC3)C2=O)cc1,"inconclusive: 89.1 µM [inhibitor, single point]",
CC(=O)Nc1c(O)nc(SCC(=O)Nc2nnc(SCc3ccccc3)s2)[nH]c1=O,"inconclusive: 39.8 µM [inhibitor, partial curve, poor fit]",
COc1ccccc1CC(=O)Nc1ccon1,"inconclusive: 100 µM [inhibitor, partial curve, poor fit]",
C=CCN(C(=O)CSc1nc2c(sc3ccccc32)c(=O)n1CCN(CC)CC)c1ccccc1,"inconclusive: 70.8 µM [inhibitor, single point]",
CCC(=Nc1ccc(N)cc1)C1=C(O)C(C(=O)OC)C(C)(C)CC1=O (stereo not drawn),,inactive: -17.9%
CC(C)=CCC/C(C)=C/CNC(=O)C[C@H]1C[C@H](C(=O)N2CCCCC2)[C@@]2(CCc3ccccc3)c3[nH]c4cc(-c5ccco5)ccc4c3CCN2C1=O,"inconclusive: 56.2 µM [inhibitor, partial curve, poor fit]",
COc1cc(/C=N/NC(=O)COc2ccccc2[N+](=O)[O-])ccc1OC(=O)c1ccco1,"inconclusive: 79.4 µM [inhibitor, single point]",
Cc1ccccc1CN1CCC(CNc2ncnc3onc(-c4ccc(F)cc4)c23)CC1,,inactive: 11.2%
CCCCCCCCCCCCN1[C@@H](CC(=O)O)c2cc(C(F)(F)F)ccc2S1(=O)=O,"inconclusive: 28.2 µM [inhibitor, single point]",
Cc1noc(C)c1-c1nc(N(C)Cc2ccco2)c2ccccc2n1,active: 28.2 µM,
Cn1c(=O)c(-c2ccc(Cl)cc2)nc2cnc(N3CCNCC3)nc21,"inconclusive: 44.7 µM [inhibitor, partial curve, poor fit]",
CCCCCCCCCCCCC(C(=O)O)C(C)C(=O)O (stereo not drawn),"inconclusive: 56.2 µM [inhibitor, partial curve, poor fit]",
O=C(NC(=S)NC1CCS(=O)(=O)C1)c1cccs1 (stereo not drawn),"inconclusive: 100 µM [inhibitor, single point]",
c1ccc(CCc2nn3c(Cc4ccccc4)nnc3s2)cc1,active: 79.4 µM,
Cc1nc(SCC(=O)c2ccc(Cl)s2)c2oc3ccccc3c2n1,"inconclusive: 79.4 µM [inhibitor, single point]",
Cn1cc(S(=O)(=O)c2ccccc2)c(=O)c2cc(Cl)ccc21,"inconclusive: 39.8 µM [inhibitor, single point]",
Cc1ccc(CN2CCCN(C)CC2)c(C)c1,active: 79.4 µM,

# Exported with bars between the fields: 20 of the compounds above.
Structure (SMILES) | Potency | max response, negative = inhibition
COc1ccc(Cl)cc1C(=O)CSc1nc(N)cc(N)n1 | inconclusive: 89.1 µM [inhibitor, single point] | 
O=C(CSc1nccn1-c1ncc(C(F)(F)F)cc1Cl)c1ccc(Br)cc1 | inconclusive: 56.2 µM [inhibitor, partial curve, poor fit] | 
CCCCS(=O)c1snnc1C (stereo not drawn) | inconclusive: 79.4 µM [inhibitor, single point] | 
O/C(=C\c1nc2ccccc2nc1/C=C(\O)c1ccccc1)c1ccccc1 | active: 79.4 µM | 
Nc1ncc(N=Nc2cc(C(=O)O)ccc2Cl)s1 | inconclusive: 89.1 µM [inhibitor, single point] | 
CCc1ccc(N2C(=O)C(Cl)=C(N3CCOCC3)C2=O)cc1 | inconclusive: 89.1 µM [inhibitor, single point] | 
CC(=O)Nc1c(O)nc(SCC(=O)Nc2nnc(SCc3ccccc3)s2)[nH]c1=O | inconclusive: 39.8 µM [inhibitor, partial curve, poor fit] | 
COc1ccccc1CC(=O)Nc1ccon1 | inconclusive: 100 µM [inhibitor, partial curve, poor fit] | 
C=CCN(C(=O)CSc1nc2c(sc3ccccc32)c(=O)n1CCN(CC)CC)c1ccccc1 | inconclusive: 70.8 µM [inhibitor, single point] | 
CCC(=Nc1ccc(N)cc1)C1=C(O)C(C(=O)OC)C(C)(C)CC1=O (stereo not drawn) |  | inactive: -17.9%
CC(C)=CCC/C(C)=C/CNC(=O)C[C@H]1C[C@H](C(=O)N2CCCCC2)[C@@]2(CCc3ccccc3)c3[nH]c4cc(-c5ccco5)ccc4c3CCN2C1=O | inconclusive: 56.2 µM [inhibitor, partial curve, poor fit] | 
COc1cc(/C=N/NC(=O)COc2ccccc2[N+](=O)[O-])ccc1OC(=O)c1ccco1 | inconclusive: 79.4 µM [inhibitor, single point] | 
Cc1ccccc1CN1CCC(CNc2ncnc3onc(-c4ccc(F)cc4)c23)CC1 |  | inactive: 11.2%
CCCCCCCCCCCCN1[C@@H](CC(=O)O)c2cc(C(F)(F)F)ccc2S1(=O)=O | inconclusive: 28.2 µM [inhibitor, single point] | 
Cc1noc(C)c1-c1nc(N(C)Cc2ccco2)c2ccccc2n1 | active: 28.2 µM | 
Cn1c(=O)c(-c2ccc(Cl)cc2)nc2cnc(N3CCNCC3)nc21 | inconclusive: 44.7 µM [inhibitor, partial curve, poor fit] | 
CCCCCCCCCCCCC(C(=O)O)C(C)C(=O)O (stereo not drawn) | inconclusive: 56.2 µM [inhibitor, partial curve, poor fit] | 
O=C(NC(=S)NC1CCS(=O)(=O)C1)c1cccs1 (stereo not drawn) | inconclusive: 100 µM [inhibitor, single point] | 
c1ccc(CCc2nn3c(Cc4ccccc4)nnc3s2)cc1 | active: 79.4 µM | 
Cc1nc(SCC(=O)c2ccc(Cl)s2)c2oc3ccccc3c2n1 | inconclusive: 79.4 µM [inhibitor, single point] | 

# Remaining list, next part:

Structure (SMILES),Potency,"max response, negative = inhibition"
O=C(NCc1ccco1)c1sc(=S)n2c1[nH]c(=O)c1ccccc12,"inconclusive: 79.4 µM [inhibitor, single point]",
CC(OC(=O)c1ccccc1NCCO)C(=O)NC1CCCCC1C (stereo not drawn),,inactive: 2.03%
C=CCn1c(-c2ccc(Cl)cc2)cnc1SC(C)C(=O)NC(N)=O (stereo not drawn),"inconclusive: 89.1 µM [inhibitor, single point]",
CCn1c(CNC(=O)C23CC4CC(CC(C4)C2)C3)nnc1SCC(=O)Nc1nnc(C)s1,"inconclusive: 56.2 µM [inhibitor, partial curve, poor fit]",
O=c1cc(O)cc(/C=C/c2ccc(O)c(O)c2)o1,"inconclusive: 100 µM [inhibitor, partial curve, poor fit]",
N#C/C(=C\c1cccnc1)C(=O)Nc1cccc(Cl)c1,"inconclusive: 89.1 µM [inhibitor, single point]",
Cc1ccccc1C(=O)N1CCC(C(=O)Nc2cccc(S(=O)(=O)N3CCCCC3)c2)CC1,"inconclusive: 100 µM [inhibitor, single point]",
CC1CC(C)CN(C(=O)COC(=O)c2cc(S(=O)(=O)N3CCOCC3)ccc2F)C1 (stereo not drawn),"inconclusive: 100 µM [inhibitor, single point]",
O=C(CSc1ccc(Cl)cc1)N1CCCC1,"inconclusive: 31.6 µM [inhibitor, partial curve, poor fit]",
COc1ccc(C[C@@](C)(N)C(=O)O)cc1OC,,inactive: -1.17%
CCOc1cccc(/C=N/Nc2nc(N3CCCC3)nc(N3CCCC3)n2)c1O,"inconclusive: 79.4 µM [inhibitor, single point]",
CCOc1nc2cccc(C(=O)OC(C)OC(=O)OC3CCCCC3)c2n1Cc1ccc(-c2ccccc2-c2nn[nH]n2)cc1 (stereo not drawn),active: 44.7 µM,
COc1cc(/C=N/n2cnnc2)ccc1OC(=O)c1ccco1,,inactive: -0.867%
O=S(=O)(NC(=S)NC1CCCCC1)c1ccc(Cl)cc1,,inactive: 2.36%
CCOc1ccc(C2C(C(=O)c3ccc(C)o3)=C(O)C(=O)N2c2nc(C)c(C(=O)OC)s2)cc1 (stereo not drawn),"inconclusive: 39.8 µM [inhibitor, partial curve]",
COc1ccc(NC(=S)NCCCCCC(=O)C[N+](=O)[O-])cc1,"inconclusive: 70.8 µM [inhibitor, partial curve]",
CCCCN(C)CCNC(=O)c1cc2cc3ccc(OC)cc3nc2o1,,inactive: -2.58%
O=C(Nc1nncs1)c1cccc(S(=O)(=O)N2CCCCC2)c1,"inconclusive: 15.8 µM [inhibitor, partial curve, poor fit]",
CCC(C)Nc1cc(C)nc2ncnn12 (stereo not drawn),"inconclusive: 35.5 µM [inhibitor, partial curve, poor fit]",
Cc1cc(C)n2nc(C(=O)OCC(=O)c3ccccc3Cl)nc2n1,,inactive: -15.5%
CC12CCCC[C@@H]1CCC1C2CCC2(C)C1CC[C@@]2(O)CNCCO (stereo partly drawn),,inactive: -5.04%
CCN(CC)CC#CCC(O)(c1ccccc1)c1ccc(Br)cc1 (stereo not drawn),"inconclusive: 5.01 µM [inhibitor, full curve, poor fit]",
COc1ccc(-n2cc(-c3ccccc3)c3c(Nc4ccc(OC)c(OC)c4)ncnc32)cc1,,inactive: 5.49%

Structure (SMILES),Potency,"max response, negative = inhibition"
Cc1cc2nc3c(=O)n(C4CCCCC4)c(=O)[nH]c3nc2cc1N,"inconclusive: 89.1 µM [inhibitor, single point]",
Cc1ccc(C)n1-c1ccc(C(=O)NN)cc1,"inconclusive: 70.8 µM [inhibitor, partial curve, poor fit]",
Fc1ccc(Nc2ncnc3onc(-c4ccc(Cl)cc4)c23)cc1Cl,,inactive: 1.39%
O=C(C1CCCN(S(=O)(=O)c2ccc(Br)s2)C1)N1CCN(c2ccccc2F)CC1 (stereo not drawn),"inconclusive: 50.1 µM [inhibitor, partial curve, poor fit]",
COn1c(-c2ccc(Cl)cc2)nc2ncccc21,,inactive: -20.9%
COc1ccc(C)cc1NC(=O)NC(C)c1c(-n2cccc2)sc(C)c1C (stereo not drawn),,inactive: -4.82%
CCCC(=O)Nc1nnc(S(=O)(=O)N2CCCCCC2)s1,,inactive: 14.2% and inactive: 12.9%
CC(=O)N1c2ccc(S(=O)(=O)NCCC(=O)N(C)C3CCCCC3)cc2CC1C (stereo not drawn),"inconclusive: 31.6 µM [inhibitor, single point]",
O=C1CCCc2cc3c(cc21)CC1(C3)Cc2cc3c(cc2C1)C(=O)CCC3,,inactive: -17.9%
CN(C)c1ccc(/C=C(/C(=O)c2ccc(Cl)cc2Cl)n2cncn2)cc1,,inactive: 1.04%
COCC(=O)N(Cc1cc2cc(C)ccc2[nH]c1=O)c1cccc(C)c1C,"inconclusive: 79.4 µM [inhibitor, single point]",
Cc1cccc(NC(=S)NCCC(c2ccccc2)c2ccccc2)c1,"inconclusive: 28.2 µM [inhibitor, partial curve, poor fit]",
COc1ccc(Br)cc1C(=O)Nc1ccc(N2CCN(S(C)(=O)=O)CC2)cc1,"inconclusive: 35.5 µM [inhibitor, partial curve, poor fit]",
Cn1nc(C(F)(F)F)c2cc(NC(=O)OCc3ccc(F)cc3)sc21,,inactive: 7.02%
CC1(C)CC(=O)C(C(C#Cc2ccccc2)C2=C(O)CC(C)(C)CC2=O)=C(O)C1,active: 22.4 µM,
C[C@@H]1CC=C[C@H]2[C@H]1C(=O)N(Cc1ccccc1)[C@H]2c1ccoc1,"inconclusive: 89.1 µM [inhibitor, single point]",
O=C(c1ccco1)N1CCN(Cc2cc(=O)oc3cc(O)ccc23)CC1,,inactive: 7.7%
CN(C(=O)c1cccc(NC(=O)Cc2ccc([N+](=O)[O-])cc2)c1)C1CCCCC1,,inactive: -6.4%
COc1cc(Br)c(Br)cc1N,,inactive: -2.26%
OC(CNCC(c1ccc(Cl)cc1Cl)c1c[nH]c2ccccc12)c1ccccc1 (stereo not drawn),,inactive: 1.8%
COc1ccc(-c2n[nH]c(=S)n2-c2ccc(C)cc2)cc1,"inconclusive: 2.51 µM [inhibitor, full curve, poor fit]",
O=C(OC1Cc2c(O)cc(O)cc2OC1c1cc(O)c(O)c(O)c1-c1c(C2Oc3cc(O)cc(O)c3CC2OC(=O)c2cc(O)c(O)c(O)c2)cc(O)c(O)c1O)c1cc(O)c(O)c(O)c1 (stereo not drawn),"inconclusive: 89.1 µM [inhibitor, single point]",
